These are yes or no findings as the source states them, for the method shown. Binding seen in cells or lysates may run through a third protein. A yes stands for co-enrichment or nearness to the bait. Other partners may have been found.

Chains of the proteins cited; added tags and fusions are not shown.
UniProt Q14244: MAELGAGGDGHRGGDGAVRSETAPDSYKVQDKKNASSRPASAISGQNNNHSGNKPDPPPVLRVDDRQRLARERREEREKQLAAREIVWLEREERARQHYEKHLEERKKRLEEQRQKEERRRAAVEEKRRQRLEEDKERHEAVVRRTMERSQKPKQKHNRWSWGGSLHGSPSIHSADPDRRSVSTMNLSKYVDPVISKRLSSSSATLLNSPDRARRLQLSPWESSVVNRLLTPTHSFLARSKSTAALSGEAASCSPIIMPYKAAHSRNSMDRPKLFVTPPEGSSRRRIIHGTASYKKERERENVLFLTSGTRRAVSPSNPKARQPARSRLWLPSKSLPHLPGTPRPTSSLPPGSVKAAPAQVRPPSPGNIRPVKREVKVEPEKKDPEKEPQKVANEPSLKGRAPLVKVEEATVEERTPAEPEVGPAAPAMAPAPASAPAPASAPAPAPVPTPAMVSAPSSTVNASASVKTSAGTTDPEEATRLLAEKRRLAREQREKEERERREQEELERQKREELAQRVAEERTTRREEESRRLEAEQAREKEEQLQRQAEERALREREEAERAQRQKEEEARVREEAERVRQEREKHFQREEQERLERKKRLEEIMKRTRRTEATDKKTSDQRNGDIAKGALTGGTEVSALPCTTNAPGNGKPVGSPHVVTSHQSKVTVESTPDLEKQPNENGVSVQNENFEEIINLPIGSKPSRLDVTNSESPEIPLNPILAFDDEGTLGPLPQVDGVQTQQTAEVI

This passage reports binding results from publication PMC9958362.

Assay [1] has as its target T1, pMLH1 peptide (phosphorylated MLH1 peptide, pSer477).
T1 sequence (peptide, Biotin-eahx on the N-terminus; phosphoserine (pS, Ser477); C-terminal amide): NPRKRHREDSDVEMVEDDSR
The assay is described as follows: affinity purification with mass spectrometry; biotinylated 20 aa peptides (phosphorylated or non-phosphorylated) coupled to streptavidin beads; pull-down from HeLa nuclear extract; quantitative proteomics; only the target purified.

The target in assay [2] is T2, pRAD50 peptide (phosphorylated RAD50 peptide, pThr690).
T2 sequence (peptide, Biotin-eahx on the N-terminus; phosphothreonine (pT, Thr690); C-terminal amide): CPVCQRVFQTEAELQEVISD
Described as above.

For “MAP7 (endogenous, HeLa nuclear extract) (from UniProt Q14244 1-749)”, the binding entry in assay [1] and in assay [2] was “binds” throughout.
